PubChem BioAssay AID1224826, NIAID | 2016

Assay: 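Genes that change LPS-induced Tnf promoter activity in mouse macrophages when knocked down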 (primary screen)
Cells: RAW264.7 G9 macrophages from mouse bearing reporters for p65 (GFP) and the Tnf promoter (mCherry)
Reagents: siRNA pool against mouse genes, 100 nM
Duration: 16 h of LPS stimulation, after 2 days of siRNA transfection
Conditions: bacterial lipopolysaccharide (Salmonella minnesota R595), 10 ng/ml
Measured: 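Imaged Tnf reporter mCherry in nuclei, minus background, normalised per plate to the median and expressed as robust z-scores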
Reading the numbers: Tnf reporter robust z-score: higher = stronger Tnf promoter reporter signal after LPS; Tnf reporter intensity: higher = stronger Tnf promoter reporter signal
Hit rule: 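a well counts as active at a score of -1.3 or below (Tlr4 knock-down control median) or above 3 (raised signal); controls and wells holding fewer than 50 cells are excluded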
Calls: active = Tnf reporter clearly lowered or raised; inactive = no clear change in Tnf reporter
The deposit covers about 17,000 reagents; below is a random part of them. About 1,110 of all reagents (6.6%) were called active. 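Active means lowered or raised reporter signal; replicate intensities are raw and not normalised per plate.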 Entries without a mark were called inactive.

gene	Tnf reporter robust z-score	fewer than 50 cells in well	Tnf reporter intensity, replicate 1	Tnf reporter intensity, replicate 2
Fam216b	0.38	enough cells in well	211	168
Or6c210		fewer than 50 cells per well; well left out of calls	120	66.3
Rex2	0.61	enough cells in well	158	150
Tgfb3	0.47	enough cells in well	247	170
Mrpl22	2.4	enough cells in well	386	48.3
Ddx27	1.08	enough cells in well	266	212
Mbl2	-0.46	enough cells in well	207	187
Cnppd1	5.12 (active)	enough cells in well	277	232
Zfp84	1.12	enough cells in well	219	117
Timd4	-0.36	enough cells in well	128	165
Smgc		fewer than 50 cells per well; well left out of calls	82.8	18.8
Htatip2	-0.93	enough cells in well	164	97.6
Strm	1.37	enough cells in well	137	154
Aldh1b1	-0.88	enough cells in well	138	96.8
Bin1	0.45	enough cells in well	147	214
Disp2	4.43 (active)	enough cells in well	456	293
Pkm		fewer than 50 cells per well; well left out of calls	138	129
Slc43a1	-0.07	enough cells in well	214	139
Arid1a	-0.31	enough cells in well	179	120
Raet1c	0.9	enough cells in well	187	150
Or8g36	1.5	enough cells in well	198	223
Rasgrp3	-0.65	enough cells in well	185	147
Lhx2	-0.78	enough cells in well	135	111
Acer3	-0.74	enough cells in well	111	99.9
Slc30a7		fewer than 50 cells per well; well left out of calls	151	42.2
Cnot6l	0.96	enough cells in well	209	209
Sorbs1	0.02	enough cells in well	98.6	102
Cdh26	0.57	enough cells in well	302	190
Atxn2l	1.5	enough cells in well	268	220
Rtcb	-0.15	enough cells in well	223	117
Gbp6	1.06	enough cells in well	287	248
Or4c127	-0.65	enough cells in well	145	84.8
Pbrm1	1.73	enough cells in well	313	136
Scrt1	-0.25	enough cells in well	113	122
Fbxw7	-0.94	enough cells in well	150	165
Pipox	1.28	enough cells in well	209	162
Chaf1b	-0.37	enough cells in well	180	274
Azin1	-0.61	enough cells in well	175	98.5
Fam234b	0.31	enough cells in well	233	334
Eras	0.3	enough cells in well	236	175
Ccdc80	0.69	enough cells in well	279	95.3
Osgepl1		fewer than 50 cells per well; well left out of calls	75.1	56.1
Pan3	0.54	enough cells in well	292	74.6
Gabrd	1.48	enough cells in well	365	372
Nnt	0.65	enough cells in well	274	237
Rnf38		fewer than 50 cells per well; well left out of calls	171	28.2
Samt3	2.31	enough cells in well	406	138
Cplx1	0.51	enough cells in well	223	200
Dnajb3	2.75	enough cells in well	352	227
Pax4	-1.26	enough cells in well	162	85.9
Jmjd8	0.18	enough cells in well	252	78.5
Pglyrp2	1.32	enough cells in well	159	243
Mmp2	-0.79	enough cells in well	202	144
Edaradd	0.03	enough cells in well	254	207
Or2m12	2.16	enough cells in well	318	204
Tspan5	1.55	enough cells in well	177	87.2
Ezh1	-1.86 (active)	enough cells in well	90.5	83.6
Upk2	0.42	enough cells in well	102	102
Dema1	-0.24	enough cells in well	215	69.3
Hmgb3	-0.38	enough cells in well	161	205
Or4k6		fewer than 50 cells per well; well left out of calls	53.6	65
Atp6v0d1	0.62	enough cells in well	220	186
Or10d4c		fewer than 50 cells per well; well left out of calls	81.8	52.1
Ttbk2	-1.84 (active)	enough cells in well	71.3	56.2
Hoxb7	0.66	enough cells in well	268	250
Arl6ip1		fewer than 50 cells per well; well left out of calls	202	95.4
Fto	-0.25	enough cells in well	249	110
LOC269472 (retired record)	-1.39 (active)	enough cells in well	116	103
Prnd	-0.29	enough cells in well	222	174
Hsdl2	0.14	enough cells in well	234	82.2
Or5aq7	-1.06	enough cells in well	144	57.8
Or2v1	-0.72	enough cells in well	86.9	87.2
Eprs1	-0.8	enough cells in well	170	165
Hrh4	0.91	enough cells in well	258	426
Slc49a4	0.77	enough cells in well	266	285

Only “Tnf reporter robust z-score” (9 entries from above):
Cplx1	0.51
Dnajb3	2.75
Pax4	-1.26
Jmjd8	0.18
Pglyrp2	1.32
Mmp2	-0.79
Edaradd	0.03
Or2m12	2.16
Tspan5	1.55
